Test results taken from patent US10548980B2, “P2X7 receptor antagonists for restoring T-cell lymphopoiesis in subjects infected with human immunodeficiency virus (HIV)” (INSERM (INSTITUT NATIONAL DE LA SANTÉ ET DE LA RECHERCHE …, priority 2016, dated 2020).
At least one compound was matched to its structure with a doubt left.

System: CD34+ cells from INRs
Experiment: Limiting dilution assay (LDA) for T-cell potential of circulating CD34+ cells
Type: cell-based, human
Settings: CD34+ cells from HIV-positive INRs on OP9-DLL1, T-cell medium with 20 μM PPAD, 21 days; mean (min-max) of three patients; ELDA webtool; 1/314.7 in its absence, P<0.05

Compound: Cc1nc(N=Nc2ccc(S(=O)(=O)O)cc2S(=O)(=O)O)c(COP(=O)(O)O)c(C=O)c1O [PPAD, pyridoxal-phosphate-6-azophenyl-2′-4′disulfonate]
- T-cell differentiation potential of CD34+ cells (frequency of T-cell precursors): 1/145.3 (1/98.3-1/214.7)
